Reference: patent US20260242474A1 (PERSONGEN BIOTHERAPEUTICS SUZHOU, published 2026)
Positions count from the first letter of the chain named. These are yes or no findings as the source states them, for the method shown. Some entries that bind do so weakly or less than the wild type. Sequences can lack the tags named with a protein.

Amino acid sequences for entries named in this document (tags omitted). Residues count along the entry.
UniProt Q15116, residues 25-288: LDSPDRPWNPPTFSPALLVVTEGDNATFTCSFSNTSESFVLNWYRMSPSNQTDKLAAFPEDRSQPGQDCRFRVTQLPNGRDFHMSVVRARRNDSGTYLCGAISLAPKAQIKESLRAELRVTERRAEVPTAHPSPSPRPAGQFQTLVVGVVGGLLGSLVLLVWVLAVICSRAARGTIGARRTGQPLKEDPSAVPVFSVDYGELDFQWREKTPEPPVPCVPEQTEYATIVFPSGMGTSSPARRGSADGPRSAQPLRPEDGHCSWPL

B1: LAB190417-3-H6 PD1 single domain antibody (VHH with human IgG1 Fc) (Fc fusion, not shown: a dimerising Fc or GST)
chain: QLKVVESGGGLVQPGESLRLSCAASGFTLGNYGVAWFRQAPGKEREGLSCITSGSTSVTHADSVKGRFSVSRDSDKKMVYLQMDSLKPEDTGIYYCAAADGGYVCSRNVNANEFDYWGQGTQVTVSS
B2: LAB190417-2-C10 PD1 single domain antibody (VHH with human IgG1 Fc) (Fc fusion, not shown: a dimerising Fc or GST)
chain: QVQLVESGGGLVQPGGSLRLSCAASGFSLDAYTIGWFRQAPGQEREGISCISRSGRITNYARSAKDRFTISRDNAKNTVYLEMKNLRPEDTGAYYCAAVEMDPFLCSGYTQSYDQWGQGTQVTVSS
B3: LAB190417-2-B1 PD1 single domain antibody (VHH with human IgG1 Fc) (Fc fusion, not shown: a dimerising Fc or GST)
chain: QVQLVESGGGLVQPGGSLTVSCAASGFSLDAYTIGWFRQAPGKEREGIICISRGGRITNYAHSVKDRFTISRDGAKNTVYLHMNSLKPEDTGAYYCAAVQRDPFICSGYTQSYDHWGQGTQVTVSS
B4: LAB190417-2-F3 PD1 single domain antibody (VHH with human IgG1 Fc) (Fc fusion, not shown: a dimerising Fc or GST)
chain: B3 chain with Q3K, V5E, A23V, T78M, H115L

Target: PD1 on overexpressing cells (UniProt Q15116)
Assay: flow cytometry, CHO cells overexpressing PD1, PE-anti-human IgG

Binder | binding
B1 | binds
B2 | binds
B3 | binds
B4 | binds
